Positions count from the first letter of the chain named. No constants are given. Whether binding was seen depends on the method and setting. Some results given as binding are weak or reduced against the parent protein; the word gives no strength. For part of these data: Where a sequence is shown, tags or fusion partners need not be part of it.

This is an account of results in patent publication US20090226429A1 (Human Genome Sciences, published 2009).

B1: scFv T1014A02 (scFv)
scFv: QVQLQESGPGLVKPSETLSLTCTVSGGSISDYYWSWVRQSPGKGLEWIGSIDYAGSTNYNPSLKSRVTMTIDKSKKQFPLKIDSVTAADTAMYYCARQLGRISDYWGQGTLVTVSSGGGGSGGGGSGGGGSALSYVLTQPPSASGTPGQRVTISCAGSSSNIGGNTVNWYQQLPATAPKLLIYSNNQRPSGVPDRFSGSKSGTSASLAISGLQSEDEADYYCATWDDSRGGWVFGGGTKLTVLG
B2: scFv T1014G03 (scFv)
scFv: EVQLVQSGAEVKMPGASVKLSCRVSGDTFTAYFIHWVRQAPGQGLEWMGWFNPISGTAGSAEKFRGRVAMTRDTSISTAYMELNRLTFDDTAVYYCARQHRGNTFDPWGQGTLVTVSSGGGGSGGGGSGGGGSAQSALTQPASVSGSPGQSITISCTGTSSDIGAYKYVSWYQQHPGKAPKLVIYEVSNRPSGVSSRFSGSKSGQTASLTISGLQADDEADYYCNSYQGYNTWVFGGGTKVTVLG
B3: scFv T1014A12 (scFv)
scFv: EVQLVQSGADVKRPGASVKVSCKISGDSFTAYFIHWVRQAPGQGLEWMGWFNPDSGTADSAQKFHGRVTMTRDTSSSTAFLELSRLRSDDTAVYYCVRQHRGNTFAPWGRGTMVTVSSGGGGSGGGGSGGGGSAQSALTQPASVSGPPGQSITISCTGSSSDVGGYKYVSWYQQHPGKAPKLIIHDVSRRPSEVSSRFSGSKSGNTASLTISGLQAEDEAEYYCSSYSSTNSWVFGGGTKVTVLG
B4: scFv T1015A07 (scFv)
scFv: EVQLVQSGAEVKKPGASVKVSCKISGDSFTAYFIHWLRQAPGEGLEWMGWFNPISGTADSPQKFHGRVAMTRDTSISTAYMELTRLASDDTAIYYCARQHHSNTFDPWGQGTLVTVSSGGGGSGGGGSGGGGSAQSALTQPASMSGSPGQSITISCTGTSSDVGGYNYVSWYQQHPGKAPKLMIYAVTNRPSGVSNRFSASKSGNTASLTISGLQAEDEADYYCSSYTSSNTWVFGGGTKVTVLG
B5: scFv T1014B11 (scFv)
scFv: B4 scFv with D59G, M144V, S160N, A186E, T188N, A200G, E217D, S229T, V241L
B6: scFv T1014A04 (scFv)
scFv: EVQLVQSGADVKRPGASVKVSCKISGDSFNAYFIHWVRQAPGQGLEWMGWFNPDSGTADSAQKFHGRVTMTRDTSSSTAFLELSRLRSDDTAVYYCVRQHRGNTFAPWGRGTMVTVSSGGGGSGGGGSGGGGSAQSVLTQPPSASGSPGQSVTISCTGTTSDVGGYNYVSWYQQHPGKAPKLMIYGVNQRPSGVPDRFSGSKSGNTASLTVSGLQAEDEADYYCSSYAGSNNWVFGGGTKLTVLG
B7: scFv T1014G04 (scFv)
scFv: EVQLVQSGADVKRPGASVKVSCKISGDSFTAYFIHWVRQAPGQGLEWMGWFNPDSGTADSAQKFHGRVTMTRDTSSSTAFLELSRLRSDDTAVYYCVRQHRGNTFAPWGRGTLVTVSSGGGGSGGGGSGGGGSAQPVLTQPPSASGSPGQSVTISCTGTSSDVGSYEYVSWYQQHPGKAPRLMISEVNKRPSGVPNRFSGSKSGNTASLTVSGLQADDEADYYCSSYAGSNNWVFGGGTKVTVLG
B8: scFv T1014F08 (scFv)
scFv: EVQLVQSGAEVKKPGASVKLSCRVSGDTFTAYFIHWVRQAPGQGPEWMGWFNPISGTAGSAARFRGRVAMTRDTSISTAYMELNRLTFDDTAVYYCARQHRGNTFDPWGKGTLVTVSSGGGGSGGGGSGGGGSALPVLTQPPSASGSPGQSVTISCTGTSSDVGGYKYVSWYQQHPGKAPKLMIYEVSMRPSGVPDRFSGSKSGNTASLTVSGLQAEDEADYYCASYAGSNNWVFGGGTKLTVLG
B9: scFv T1014B01 (scFv)
scFv: QVQLVQSGAEVKKPGASVKVSCKISGDTFAAYFIHWVRQAPGQGLEWMGWFNPNSGTADSSQKFHGRVTMTRDTSISTAYMELSRLRSDDTAVYYCARQHRSNTFDPWGQGTMVTVSSGGGGSGGGGSGGGGSAQSVVTQPPSVSGSPGQSVTISCTGTSSDIGAYNYVSWFQQHPGKAPKLIISEVSKRPSGVPDRLSGSKSGNTASLTVSGLQAEDEADYYCGSYAGSNIWVFGGGTKVTVLG
B10: IgG1 antibody comprising the VH and VL domains of the T1014F08 scFv (antibody, V domains shown)
VH: EVQLVQSGAEVKKPGASVKLSCRVSGDTFTAYFIHWVRQAPGQGPEWMGWFNPISGTAGSAARFRGRVAMTRDTSISTAYMELNRLTFDDTAVYYCARQHRGNTFDPWGKGTLVTVSS
VL: LPVLTQPPSASGSPGQSVTISCTGTSSDVGGYKYVSWYQQHPGKAPKLMIYEVSMRPSGVPDRFSGSKSGNTASLTVSGLQAEDEADYYCASYAGSNNWVFGGGTKLTVLG

One test has as its target T1, TR4 fusion protein (human) (UniProt O00220).
T1 sequence: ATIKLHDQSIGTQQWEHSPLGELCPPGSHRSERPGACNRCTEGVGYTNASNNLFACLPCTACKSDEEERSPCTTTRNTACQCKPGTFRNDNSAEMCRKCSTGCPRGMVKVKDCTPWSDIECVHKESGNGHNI
The experiment in a line: phage display selection on TR4.
On to B1, for which the binding result is “binds”.

Take B2: the binding entry is given as “binds”. Consider B3, for which the binding result was “binds”. For the molecule B4, the binding result was “binds”. With B5, the binding entry is given as “binds”. On to B6, for which the binding result was “binds”. As for B7, the binding entry is reported as “binds”. On to B8, for which the binding entry is listed as “binds”. B9: the binding entry is reported as “binds”.

Another test deals with T1, TR4 fusion protein (human). Put plainly: specificity phage ELISA, antigen coated at 1 ug/ml. A general note: An ELISA detects its analyte on a solid surface through an enzyme-linked reagent.
B2: the binding result is on record as “binds”. In the case of B5, the binding entry is “binds”.

In the case of B6, the binding entry is “binds”. B7: the binding entry was “binds”. Same read-out and setting: the entry for B8 is “binds”.

For another test, the target named is T2, TR4 expressed on cells (human) (UniProt O00220).
T2 sequence: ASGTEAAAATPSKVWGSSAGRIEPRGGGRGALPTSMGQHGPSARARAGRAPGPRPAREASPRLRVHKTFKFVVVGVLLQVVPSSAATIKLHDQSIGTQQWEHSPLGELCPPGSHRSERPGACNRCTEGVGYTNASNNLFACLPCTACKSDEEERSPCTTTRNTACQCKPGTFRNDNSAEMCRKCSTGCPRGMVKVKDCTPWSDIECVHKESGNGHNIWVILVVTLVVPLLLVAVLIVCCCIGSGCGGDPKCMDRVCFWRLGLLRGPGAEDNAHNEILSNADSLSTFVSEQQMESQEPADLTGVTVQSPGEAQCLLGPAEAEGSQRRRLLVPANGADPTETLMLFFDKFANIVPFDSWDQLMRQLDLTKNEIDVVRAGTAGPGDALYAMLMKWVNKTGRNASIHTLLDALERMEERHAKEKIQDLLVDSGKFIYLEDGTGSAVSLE
The experiment in a line: statement in Example 8; assay not named.
Regarding B10, the binding entry is reported as “binds”.
